For at least one entry, the source does not settle the construct or the ends of the probe.
Tested on: SsNST1 (His-SsNST1) (Saccharum spontaneum)
Assay: EMSA
Conditions: EMSA as in Gao et al., 2019; pH and temperature not stated; recombinant protein; protein details: His; label: 5' 6-FAM

Sequence	binding result
CAGAAATGTTTTCTGGAAAAGAAAGTAGTCAGAAATGTTTTCTGGAAAAGAAAGTAGT (double strand) [SsCESA9-SNBE probe]	binds
TCGTGTGACGGTCAAGTCATCGTGTGACGGTCAAGTCATCGTGTGACGGTCAAGTCA (double strand) [SsCESA7-SNBE probe]	binds
TCTCTGTTTTAAACTATAAGTCATTCTATCTCTGTTTTAAACTATAAGTCATTCTA (double strand) [SsCESA4-SNBE probe]	binds

Source: publication PMC12722970
